Results published in publication PMC11666741.
Substitutions are numbered along the chain they refer to. Where two headings read alike, the source gives them in different places. These are yes or no findings as the source states them, for the method shown. For some of these results: Binding seen in cells or lysates may run through a third protein. Some binding calls cover weakened binding; strength is not graded here. For some of these results: Where a sequence is shown, tags or fusion partners need not be part of it. Blank lines part the entries; values can stand above or below the molecule they belong to.

Amino acid sequences for entries named in this document (tags omitted).
UniProt Q8S8P5: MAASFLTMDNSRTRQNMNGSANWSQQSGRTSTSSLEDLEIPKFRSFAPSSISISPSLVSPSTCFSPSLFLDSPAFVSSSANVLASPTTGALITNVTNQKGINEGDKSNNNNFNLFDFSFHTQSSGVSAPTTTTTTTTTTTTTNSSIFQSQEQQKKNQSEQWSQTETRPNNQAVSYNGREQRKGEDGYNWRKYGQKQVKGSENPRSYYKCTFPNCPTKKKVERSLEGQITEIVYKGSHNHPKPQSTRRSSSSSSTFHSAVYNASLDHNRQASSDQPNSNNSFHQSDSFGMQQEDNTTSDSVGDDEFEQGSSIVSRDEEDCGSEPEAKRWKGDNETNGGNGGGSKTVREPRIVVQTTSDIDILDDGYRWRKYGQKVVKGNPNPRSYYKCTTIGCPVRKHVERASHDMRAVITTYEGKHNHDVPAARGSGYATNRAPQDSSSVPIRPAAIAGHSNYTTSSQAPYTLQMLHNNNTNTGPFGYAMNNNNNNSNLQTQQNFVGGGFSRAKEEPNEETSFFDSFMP
UniProt Q9C5T4: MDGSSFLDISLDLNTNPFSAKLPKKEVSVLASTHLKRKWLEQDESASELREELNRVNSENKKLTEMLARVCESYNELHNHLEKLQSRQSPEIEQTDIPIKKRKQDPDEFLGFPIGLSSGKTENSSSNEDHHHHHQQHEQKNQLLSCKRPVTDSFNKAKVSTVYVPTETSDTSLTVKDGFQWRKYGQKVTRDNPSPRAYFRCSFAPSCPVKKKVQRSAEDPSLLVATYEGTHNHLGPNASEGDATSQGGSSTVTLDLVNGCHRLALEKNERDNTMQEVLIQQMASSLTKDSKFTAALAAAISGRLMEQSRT
UniProt Q9FYA2: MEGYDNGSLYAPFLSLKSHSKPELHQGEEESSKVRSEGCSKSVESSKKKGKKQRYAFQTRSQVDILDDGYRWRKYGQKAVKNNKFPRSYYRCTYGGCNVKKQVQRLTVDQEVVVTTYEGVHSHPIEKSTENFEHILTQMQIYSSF

Tests used:
[1] = target: T1, VQ10 (VQ motif-containing protein 10), yeast two-hybrid fusion (Arabidopsis thaliana) (UniProt Q8VYI5); test: two-hybrid; Matchmaker Gold mating system: Y2HGold with GAL4-BD baits mated with Y187 with GAL4-AD preys; diploids on SD/QDO (-Ade/-His/-Leu/-Trp); empty BD or AD clones as controls
T1 sequence: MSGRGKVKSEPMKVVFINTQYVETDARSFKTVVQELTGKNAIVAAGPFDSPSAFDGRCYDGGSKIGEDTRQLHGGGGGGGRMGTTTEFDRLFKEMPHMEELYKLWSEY

[2] = target: T2, VQ1 (VQ motif-containing protein 1), yeast two-hybrid fusion (Arabidopsis thaliana) (UniProt Q1G3U8); test: as above
T2 sequence: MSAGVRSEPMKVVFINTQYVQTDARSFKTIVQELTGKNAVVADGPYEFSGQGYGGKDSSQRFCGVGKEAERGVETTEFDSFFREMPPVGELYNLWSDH

[3] = target: WRKY33 transcription factor, yeast two-hybrid fusion (Arabidopsis thaliana) (UniProt Q8S8P5); test: as above
[4] = target: T1, VQ10 (VQ motif-containing protein 10), yeast two-hybrid fusion (Arabidopsis thaliana); test: as above; remark: listed apart in the source
[5] = target: T2, VQ1 (VQ motif-containing protein 1), yeast two-hybrid fusion (Arabidopsis thaliana); test: as above; remark: listed apart in the source
[6] = target: T3, DXS-GFP (1-deoxy-D-xylulose-5-phosphate synthase fused to GFP) (Arabidopsis thaliana) (UniProt Q38854); test: co-IP; N. benthamiana leaves co-agroinfiltrated; total protein extract (50 mM Tris-HCl pH 7.5, 150 mM NaCl, 10% glycerol, 0.15% Nonidet P-40; 0.5 mM, 0.05 mM or 5 mM DTT); IP of DXS-GFP with GFP-Trap magnetic beads; blot with anti-HA
T3 sequence: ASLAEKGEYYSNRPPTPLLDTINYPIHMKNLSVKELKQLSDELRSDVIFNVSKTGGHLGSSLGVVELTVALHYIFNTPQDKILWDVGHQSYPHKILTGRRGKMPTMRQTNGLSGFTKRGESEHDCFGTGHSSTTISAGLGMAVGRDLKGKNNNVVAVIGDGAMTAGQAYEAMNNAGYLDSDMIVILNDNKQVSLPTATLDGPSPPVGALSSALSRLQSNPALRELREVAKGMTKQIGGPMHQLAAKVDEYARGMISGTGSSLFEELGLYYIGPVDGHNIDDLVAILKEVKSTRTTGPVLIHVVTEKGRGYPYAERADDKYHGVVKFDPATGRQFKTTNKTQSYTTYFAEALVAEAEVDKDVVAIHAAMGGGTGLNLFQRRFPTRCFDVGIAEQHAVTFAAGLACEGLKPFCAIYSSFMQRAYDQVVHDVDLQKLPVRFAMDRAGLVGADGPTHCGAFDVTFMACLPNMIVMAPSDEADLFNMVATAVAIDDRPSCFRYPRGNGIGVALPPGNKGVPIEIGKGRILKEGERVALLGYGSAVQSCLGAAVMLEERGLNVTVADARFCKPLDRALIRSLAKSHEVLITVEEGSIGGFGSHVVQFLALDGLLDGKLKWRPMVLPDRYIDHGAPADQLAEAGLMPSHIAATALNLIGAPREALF

[7] = target: 3xHA-VQ10 (Arabidopsis thaliana) (UniProt Q8VYI5); test: Western blot of extracts and immunoprecipitates (bands of oligomers, dimers and monomers, sensitive to DTT); N. benthamiana extracts and IPs prepared at the indicated DTT (0.05 to 5 mM); blots with anti-GFP or anti-HA
[8] = target: 3xHA-VQ1 (Arabidopsis thaliana) (UniProt Q1G3U8); test: as above
[9] = target: T4, VQ1-RFP (Arabidopsis thaliana) (UniProt Q1G3U8); test: co-IP; N. benthamiana leaves co-agroinfiltrated; total protein extract with 0.5 mM DTT; IP of VQ-RFP with RFP-Trap Magnetic Agarose; blot with anti-GFP
T4 sequence: T2 sequence

[10] = target: T5, VQ10-RFP (Arabidopsis thaliana) (UniProt Q8VYI5); test: as above
T5 sequence: T1 sequence

[11] = target: T3, DXS-GFP (1-deoxy-D-xylulose-5-phosphate synthase fused to GFP) (Arabidopsis thaliana); test: Western blot of extracts and immunoprecipitates (bands of oligomers, dimers and monomers, sensitive to DTT); N. benthamiana extracts and IPs prepared at the indicated DTT (0.05 to 5 mM); blots with anti-GFP or anti-HA

- binding [1]: binds weakly
- binding [2]: binds weakly
Molecule: WRKY18 transcription factor, yeast two-hybrid fusion (from UniProt Q9C5T4 1-310)

- binding [1]: binds
- binding [2]: binds
Molecule: WRKY75 transcription factor, yeast two-hybrid fusion (from UniProt Q9FYA2 1-145)

- binding [4]: binds
- binding [5]: binds
B7: WRKY40 transcription factor, yeast two-hybrid fusion (protein, UniProt Q9SAH7 1-302)
chain: MDQYSSSLVDTSLDLTIGVTRMRVEEDPPTSALVEELNRVSAENKKLSEMLTLMCDNYNVLRKQLMEYVNKSNITERDQISPPKKRKSPAREDAFSCAVIGGVSESSSTDQDEYLCKKQREETVVKEKVSRVYYKTEASDTTLVVKDGYQWRKYGQKVTRDNPSPRAYFKCACAPSCSVKKKVQRSVEDQSVLVATYEGEHNHPMPSQIDSNNGLNRHISHGGSASTPVAANRRSSLTVPVTTVDMIESKKVTSPTSRIDFPQVQKLLVEQMASSLTKDPNFTAALAAAVTGKLYQQNHTEK

The remaining lines, values behind:

B1: VQ10 (VQ motif-containing protein 10), yeast two-hybrid fusion (protein, UniProt Q8VYI5 1-108)
chain: T1 sequence
- binding [3]: binds
- binding [4]: binds
- binding [5]: binds

B2: HA-VQ10C58S (protein, UniProt Q8VYI5 1-108)
chain: T1 sequence with C58S
- binding [6]: binds

B3: 3xHA-VQ10 (protein, UniProt Q8VYI5 1-108)
chain: T1 sequence
- binding [7]: binds
- binding [6]: binds

B4: VQ1 (VQ motif-containing protein 1), yeast two-hybrid fusion (protein, UniProt Q1G3U8 1-98)
chain: T2 sequence
- binding [3]: binds
- binding [5]: binds

B5: 3xHA-VQ1 (protein, UniProt Q1G3U8 1-98)
chain: T2 sequence
- binding [8]: binds
- binding [6]: binds

B6: DXS-GFP (1-deoxy-D-xylulose-5-phosphate synthase fused to GFP) (enzyme, UniProt Q38854 59-717)
chain: T3 sequence
- binding [9]: binds
- binding [10]: binds
- binding [11]: binds
